Results from patent US12319752B2, “Heparin-binding cationic peptide self-assembling peptide amphiphiles useful against drug-resistant bacteria” (priority 2016, dated 2025).
At least one peptide structure holds a part that was inferred or is arguable (an end, a ring closure or a residue). Residues, ends and D or L forms follow the SMILES beside them. No end group written: not given here. *: point of attachment. Palmitoyl = CCCCCCCCCCCCCCCC(=O)*

Tests used:
[1] = tested on: LPS (from Escherichia coli O111:B4); assay: LPS binding, BODIPY TR cadaverine (BC) probe displacement assay
Method: The binding of each peptide at various concentrations to LPS was determined by the capability of displacing the BC probes bound with LPS. The fluorescent BC probe was used as a probe to determine the level of peptide bound with LPS. BC probe binds to native LPS and particularly target the lipid A portion. The fluorescent intensity of BC probe decreases as it binds to LPS. […] For instance, the LPS binding factor of samples containing 60 μM of CVK-PA was as double as the 40 μM sample.
The LPS binding affinity of peptide was examined with the BODIPY TR cadaverine (BC) fluorescent probe displacement assay as previously described. Stock solution of each peptide was diluted to predetermined concentrations with 10 mM HEPES buffer (pH=7.5, Thermo Fisher Scientific, Waltham, MA, USA). Peptide solutions were equilibrated for 10 minutes, and LPS (from Escherichia coli O111:B4, Sigma, St. Louis, MO, USA) solution in 10 mM HEPES buffer was added. The final peptide concentrations ranged from 20 μM to 100 μM, and the LPS concentration was 100 μg/mL. LPS only samples were solutions that only contained the same amount of LPS without peptide. Peptides were allowed to interact with LPS in room temperature for 15 minutes, and the BC probe solution in 10 mM HEPES buffer was added to achieve a final concentration of 10 μM. Followed by incubation for 15 minutes in room temperature, the fluorescent intensity was measured using a spectrophotometer at an excitation wavelength of 580 nm and an emission wavelength of 620 nm. Finally, the LPS binding factor of each sample was calculated using the equation:
[formula] • where Fp is the fluorescent intensity of BC probe in each peptide solution, Fp,LPS is the fluorescent intensity of BC probe in the mixture of peptide/LPS solution, FLPS represents the fluorescent intensity of BC probe in solution containing LPS only.
When peptides bind to LPS and displace the BC probe, fluorescence intensity of the probe is increased. LPS binding affinity of each peptide was then analyzed by the fluorescent intensity of the displaced BC probe. Data were expressed by stand error of the mean (±S.E.M.) and N=3, *p<0.05 compared with 0 μM samples and #p<0.05 compared with 40 μM samples of the same peptide.

E. coli [2] = assay: Viable colony count assay (bactericidal effect, 4 h); assay type: cell-based, Escherichia coli (ATCC #25922); details: 20 to 100 μM
Method: (§1) The bactericidal effects of the peptides were examined using a viable colony count assay as well as the live/dead staining assay. For the viable colony count assay, bacteria were treated with peptides for 4 h and the resulting viable bacterial density of each sample was expressed by log10[CFU/mL]. For the Gram-positive bacteria tested, the decrease in bacterial density was dependent on the concentration of the ACA-PA (FIG. 8A). […] As for Gram-negative E. coli and MDR E. coli bacteria (FIG. 8B), the ACA nanorods, wherein the PA were added at a concentration above their CMC, had potent bactericidal effects. For example, the ACA nanorods at concentrations over 60 μM reduced the colony forming units of Gram-negative bacteria by about a five log unit reduction after 4 h compared with the untreated negative control sample.
(§2) The viable count assay was performed to quantify the bactericidal activity of each peptide. Stock solutions of peptides were diluted in 3% TSB media to concentrations ranging from 20 μM to 100 μM immediately before experiments. […] The colonies from each spot were manually counted, and the CFU number for each sample was determined. Experiments were conducted in triplicate and results were expressed as the log 10 values of the CFU number in each sample. […]

S. aureus [3] = assay: as above; assay type: cell-based, Staphylococcus aureus (ATCC #25923); details: 20 to 100 μM
Method: as §1, §2

E. coli [4] = assay: Bacterial growth inhibition (growth curves, OD562, 20 h); assay type: cell-based, Escherichia coli (ATCC #25922); details: 20 to 100 μM
Method: Gram-positive (S. aureus and MRSA) and Gram-negative (E. coli and MDR E. coli) bacteria were incubated with peptide concentrations ranging from 20 to 100 μM, and time-lapsed bacterial growth was monitored for 20 hours by determining the optical density at 562 nm (O.D. 562 nm). […] At the highest concentration tested (100 μM), the time to exponential growth phase of S. aurues was delayed by about 18 h (FIG. 5B), and was prolonged by almost 13 h for MRSA (FIG. 5A), while bacteria incubated without ACA-PA entered the exponential growth phase within 4 h. Gram-positive bacteria were also susceptible to the ACA-PA even below their CMC. […]
(§3) This assay was performed to investigate the inhibitory effects of each peptide against Gram-positive Staphylococcus aureus (S. aureus, ATCC #25923) and methicillin-resistant S. aureus (MRSA, ATCC #43300), as well as Gram-negative Escherichia coli (E. coli, ATCC #25922), and multidrug-resistant E. coli (MDR E. coli, ATCC #BAA-2471). […] The bacteria were incubated inside a spectrophotometer (Spectra-Max Paradigm, Molecular Devices, Sunnyvale, CA) at 37° C. under static conditions for 20 h, and the bacterial growth curves were measured in terms of turbidity at OD562 every 2 minutes. The normalized OD562 values of samples were calculated by subtracting the […].

S. aureus [5] = assay: as above; assay type: cell-based, Staphylococcus aureus (ATCC #25923); details: 20 to 100 μM
Method: Gram-positive (S. aureus and MRSA) and Gram-negative (E. coli and MDR E. coli) bacteria were incubated with peptide concentrations ranging from 20 to 100 μM, and time-lapsed bacterial growth was monitored for 20 hours by determining the optical density at 562 nm (O.D. 562 nm). […] At the highest concentration tested (100 μM), the time to exponential growth phase of S. aurues was delayed by about 18 h (FIG. 5B), and was prolonged by almost 13 h for MRSA (FIG. 5A), while bacteria incubated without ACA-PA entered the exponential growth phase within 4 h. Gram-positive bacteria were also susceptible to the ACA-PA even below their CMC.
as §3

Row | Compound | LPS binding affinity ([1]; 20 μM to 40 μM) | LPS binding factor at 60 μM relative to the 40 μM sample ([1]; 60 μM vs 40 μM) | LPS binding affinity ([1]; concentrations higher than CMC) | bactericidal effect (E. coli [2]) | bactericidal effect (S. aureus [3]) | bacterial growth inhibition (E. coli [4]) | LPS binding factor ([1]; 20 μM to 100 μM peptide, 100 μg/mL LPS) | bacterial growth inhibition (S. aureus [5])
1 | CCCCCCCCCCCCCCCC(=O)N[C@H](C(=O)N[C@H](C(=O)N[C@H](C(=O)N[C@H](C(=O)N[C@@H](CCCCN)C(=O)N[C@@H](CCCCN)C(=O)N[C@@H](CCCCN)C(=O)N[C@@H](CCCCN)C(=O)O)C(C)C)C(C)C)C(C)C)C(C)C [CVK-PA, C16-V4K4 (SEQ ID NO: 1), reference compound] (Palmitoyl-VVVVKKKK-OH) | weak binding affinity | double | significantly enhanced binding affinity | no bactericidal effects | no bactericidal effects | – | – | –
2 | AKKARAAKKARA [Bi-Cardin, (AKKARA)2 (SEQ ID NO: 2), reference compound] | – | – | – | no bactericidal effects | no bactericidal effects | unable meaningfully to inhibit the proliferation | remained in similar levels | unable meaningfully to inhibit the proliferation
